Results of single-concentration screens

The chains behind the UniProt entries cited, without tags or fusion partners. Residues count along the entry.
UniProt Q4DA54, 1-478: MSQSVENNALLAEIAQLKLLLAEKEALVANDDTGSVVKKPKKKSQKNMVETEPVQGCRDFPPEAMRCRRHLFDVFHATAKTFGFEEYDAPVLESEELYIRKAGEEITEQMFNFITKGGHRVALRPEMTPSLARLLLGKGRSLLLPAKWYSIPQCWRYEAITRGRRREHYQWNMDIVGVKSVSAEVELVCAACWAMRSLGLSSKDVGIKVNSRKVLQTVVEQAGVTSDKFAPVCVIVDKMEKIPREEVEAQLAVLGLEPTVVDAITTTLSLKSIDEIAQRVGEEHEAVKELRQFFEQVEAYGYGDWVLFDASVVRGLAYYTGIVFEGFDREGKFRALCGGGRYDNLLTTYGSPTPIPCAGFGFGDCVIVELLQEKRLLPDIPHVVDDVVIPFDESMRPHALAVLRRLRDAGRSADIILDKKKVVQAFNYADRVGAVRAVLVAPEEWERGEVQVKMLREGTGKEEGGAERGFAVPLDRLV
UniProt P9WPC5, whole entry: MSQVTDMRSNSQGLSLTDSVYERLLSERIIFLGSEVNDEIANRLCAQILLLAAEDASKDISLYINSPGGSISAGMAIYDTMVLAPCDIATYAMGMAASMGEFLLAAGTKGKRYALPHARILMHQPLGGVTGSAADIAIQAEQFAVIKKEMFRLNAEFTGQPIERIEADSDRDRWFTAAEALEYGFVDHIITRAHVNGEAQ
UniProt P9WPC3, whole entry partner: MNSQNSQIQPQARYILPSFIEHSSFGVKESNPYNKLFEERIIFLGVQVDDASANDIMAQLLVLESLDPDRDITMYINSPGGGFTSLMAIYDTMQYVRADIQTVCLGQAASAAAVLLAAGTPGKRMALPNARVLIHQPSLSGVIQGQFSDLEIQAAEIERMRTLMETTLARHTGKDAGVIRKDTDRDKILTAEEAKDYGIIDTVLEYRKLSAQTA
UniProt Q8IDJ8, 1-583: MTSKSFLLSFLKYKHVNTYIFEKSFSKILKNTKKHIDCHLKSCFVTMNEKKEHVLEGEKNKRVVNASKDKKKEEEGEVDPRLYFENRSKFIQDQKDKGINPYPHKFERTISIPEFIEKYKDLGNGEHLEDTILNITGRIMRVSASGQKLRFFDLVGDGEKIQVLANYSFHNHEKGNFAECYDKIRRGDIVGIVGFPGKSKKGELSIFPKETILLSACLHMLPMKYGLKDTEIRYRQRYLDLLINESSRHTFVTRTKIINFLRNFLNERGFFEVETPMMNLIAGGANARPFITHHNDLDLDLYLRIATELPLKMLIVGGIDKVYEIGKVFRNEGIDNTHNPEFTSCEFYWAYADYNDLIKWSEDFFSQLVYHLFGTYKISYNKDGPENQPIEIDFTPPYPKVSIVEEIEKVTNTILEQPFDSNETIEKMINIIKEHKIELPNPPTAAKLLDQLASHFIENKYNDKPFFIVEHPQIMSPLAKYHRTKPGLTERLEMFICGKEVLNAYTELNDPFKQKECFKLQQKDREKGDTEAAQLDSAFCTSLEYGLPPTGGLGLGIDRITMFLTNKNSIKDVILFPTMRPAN
UniProt A4I591, 1-473: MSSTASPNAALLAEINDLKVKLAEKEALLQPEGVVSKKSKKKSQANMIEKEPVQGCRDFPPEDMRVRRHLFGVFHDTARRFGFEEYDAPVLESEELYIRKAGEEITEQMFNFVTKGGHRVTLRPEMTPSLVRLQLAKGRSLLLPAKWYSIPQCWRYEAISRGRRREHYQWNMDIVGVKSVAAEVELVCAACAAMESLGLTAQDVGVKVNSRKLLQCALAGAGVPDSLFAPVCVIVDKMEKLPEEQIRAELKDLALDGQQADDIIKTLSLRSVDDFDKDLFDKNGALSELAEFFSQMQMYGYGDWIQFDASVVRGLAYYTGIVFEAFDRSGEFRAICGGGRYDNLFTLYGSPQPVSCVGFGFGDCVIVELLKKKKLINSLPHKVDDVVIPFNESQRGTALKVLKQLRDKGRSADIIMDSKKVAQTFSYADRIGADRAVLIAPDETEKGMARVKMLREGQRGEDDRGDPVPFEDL

Each number is a percent effect as filed. The record does not define 0% and 100%; most values in the screen are far below 50% and negative numbers occur (in some assays of this library far below -100). The compounds are a random part of those screened.

TcHisRS: 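Enzyme assay of histidyl-tRNA synthetase; the read-out is not stated. Target: Histidine-tRNA ligase, Trypanosoma cruzi CL Brener (UniProt Q4DA54). Compounds at 30 µM. Direction is inferred from retests: higher values go with stronger inhibition. About 69,000 compounds were tested under these conditions; 0.045% (about 31) showed 50% or more at least once.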
ClpP1P2: 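ClpP1P2, Mycobacterium tuberculosis (UniProt P9WPC5 and UniProt P9WPC3). Protease assay of ClpP1P2, read by the AMC dye that it sets free. Compounds at 50 µM. Direction is inferred from only a few compounds that gave an IC50; most scored high, so higher reads as stronger inhibition. Most other retested compounds had strongly negative values. Size under these conditions: about 69,000 compounds, about 10 of them at 50% or above in at least one test.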
PfKRS1: 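Enzyme assay of the cytosolic lysyl-tRNA synthetase in 384-well plates, read by luminescence. Target: Lysine-tRNA ligase, Plasmodium falciparum 3D7 (UniProt Q8IDJ8). Compounds at 30 µM. Higher reads as stronger inhibition, judged from the few compounds that gave an IC50. Of about 69,000 compounds tested this way, about 49 (0.071%) reached 50% or more in at least one test.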
LiHisRS: 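Histidine-tRNA ligase, Leishmania infantum (UniProt A4I591). Enzyme assay of histidyl-tRNA synthetase; the read-out is not stated. Tested at 30 µM. Direction is inferred from retests: higher values go with stronger inhibition. The assay is labelled LdHisRS but filed under L. infantum. Size under these conditions: about 69,000 compounds, about 410 of them at 50% or above in at least one test.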

For Cc1nc(CN2CCCn3nc(CNC(=O)C4CCC4)cc3C2)co1 the result was TcHisRS: -1.508%; ClpP1P2: -8.948%; PfKRS1: -2.66%; LiHisRS: 7.2%.
For CC(C)(C)OC(=O)N(CCNS(=O)(=O)N1CCOCC1)C1CC1 the result was TcHisRS: 3.571%; ClpP1P2: -4.104%; PfKRS1: 5.958%; LiHisRS: 21.24%.
For O=C(O)C1(Cc2cc(-c3ccccc3F)no2)CCOCC1 the result was TcHisRS: 6.667%; ClpP1P2: 16.78%; PfKRS1: 5.919%; LiHisRS: 10.31%.
For CC1CCN(S(=O)(=O)N2CCn3cccc3C2C)CC1 (configuration not stated) the result was TcHisRS: 6.186%; ClpP1P2: -26.7%; PfKRS1: 1.683%; LiHisRS: 0%.
For CC(C)N(CCCNC(=O)C1CC1)S(C)(=O)=O the result was TcHisRS: 3.017%; ClpP1P2: -3.459%; PfKRS1: 11.69%; LiHisRS: 21.52%.
For O=C(COc1ccc(Cl)cc1)Nc1cnc(N2CCOCC2)nc1 the result was TcHisRS: 8.293%; ClpP1P2: -17.97%; PfKRS1: 9.337%; LiHisRS: 11.86%.
For CCC(CC(=O)NS(=O)(=O)C(C)C)c1ccccc1 (configuration not stated) the result was TcHisRS: -3.448%; ClpP1P2: -5.124%; PfKRS1: -1.581%; LiHisRS: 15.38%.
For O=c1[nH]c(N2CCOCC2)nc2c1CN(Cc1cccnc1)CC2 the result was TcHisRS: 6.383%; ClpP1P2: -7.785%; PfKRS1: 5.6%; LiHisRS: 5.208%.
For Cc1cccc(-n2nnnc2C2(NCc3ccco3)CCCCC2)c1 the result was TcHisRS: 7.921%; ClpP1P2: -13.75%; PfKRS1: -2.891%; LiHisRS: -19.05%.
For Cc1csc(N2CCCN(C(=O)c3c(C)noc3C)CC2)n1 the result was TcHisRS: 0%; ClpP1P2: -11.72%; PfKRS1: 0.3286%; LiHisRS: 3.448%.
For O=C(Cc1cccnc1)N1CCC(OCc2ccccc2)CC1 the result was TcHisRS: 5.785%; ClpP1P2: 0.2926%; PfKRS1: 5.165%; LiHisRS: 20.95%.
For COC(=O)c1c(C(F)(F)F)cnc(OC)c1Cl the result was TcHisRS: 11.46%; ClpP1P2: -0.2675%; PfKRS1: 3.979%; LiHisRS: 14.58%.
For COC(=O)c1cc(OCC2CCC2)cc(C(=O)N[C@H](C)C(N)=O)c1 the result was TcHisRS: -2.439%; ClpP1P2: -3.542%; PfKRS1: -6.39%; LiHisRS: -3.614%.
For CCc1nc(C2CCCN2CCCc2nc3ccccc3o2)no1 (configuration not stated) the result was TcHisRS: 2.035%; ClpP1P2: -30.12%; PfKRS1: -0.4587%; LiHisRS: 0.8772%.
For Cc1cc2n(n1)CC(CNCc1cnn(-c3ccccc3)c1)CN2 (configuration not stated) the result was TcHisRS: 4.943%; ClpP1P2: 7.177%; PfKRS1: -4.038%; LiHisRS: 24.8%.
For CC(=O)Nc1cc(F)c(S(=O)(=O)N(C)CC2CCC2)c(F)c1 the result was TcHisRS: 7.263%; ClpP1P2: -4.984%; PfKRS1: 4.124%; LiHisRS: 10.53%.
For CSc1ccc(NCC(=O)NC(=O)NCC(F)(F)F)cc1F the result was TcHisRS: 2.41%; ClpP1P2: -10.16%; PfKRS1: -1.091%; LiHisRS: -6%.
For Cn1ccc(CN2CCC(COC3CCCC3)CC2)cc1=O the result was TcHisRS: 4.135%; ClpP1P2: 3.218%; PfKRS1: 1.476%; LiHisRS: 21.62%.
For Cc1ccc([C@H]2CN(CCO)C[C@@H]2NC(=O)CN2CCCCC2=O)o1 the result was TcHisRS: -1.98%; ClpP1P2: -3.409%; PfKRS1: 3.419%; LiHisRS: 13.04%.
For CCCN1CCN(CC(O)c2ccc(OC(F)(F)F)cc2)CC1 (configuration not stated) the result was TcHisRS: 10.17%; ClpP1P2: -12.31%; PfKRS1: 0.4164%; LiHisRS: 13.16%.
For Cc1cc(NCc2ccccc2CN2CCCCC2)n2ncnc2n1 the result was TcHisRS: -0.9804%; ClpP1P2: -10.83%; PfKRS1: 4.393%; LiHisRS: 19.2%.
For CCOCC(=O)N1CCCn2c(CN3CCCCC3)nnc2C1 the result was TcHisRS: 13.07%; ClpP1P2: 18.72%; PfKRS1: 3.66%; LiHisRS: 20.21%.
For CC(C)n1cnnc1CNC(=O)CCCOc1ccccc1F the result was TcHisRS: 4.167%; ClpP1P2: -10.11%; PfKRS1: 0.3507%; LiHisRS: 13.98%.

Data taken from ChEMBL document CHEMBL3988442, “University of Dundee, Small-Polar-MMV Screening Library” (2021).